Results: paper PMC9010301
Results are given in words; binding and its absence hold for the method and conditions named. Some entries that bind do so weakly or less than the wild type.

Molecular target: T1, Rad17 (subunit of the S.c. 9–1-1 clamp) (S. cerevisiae) (UniProt P48581)
T1 sequence: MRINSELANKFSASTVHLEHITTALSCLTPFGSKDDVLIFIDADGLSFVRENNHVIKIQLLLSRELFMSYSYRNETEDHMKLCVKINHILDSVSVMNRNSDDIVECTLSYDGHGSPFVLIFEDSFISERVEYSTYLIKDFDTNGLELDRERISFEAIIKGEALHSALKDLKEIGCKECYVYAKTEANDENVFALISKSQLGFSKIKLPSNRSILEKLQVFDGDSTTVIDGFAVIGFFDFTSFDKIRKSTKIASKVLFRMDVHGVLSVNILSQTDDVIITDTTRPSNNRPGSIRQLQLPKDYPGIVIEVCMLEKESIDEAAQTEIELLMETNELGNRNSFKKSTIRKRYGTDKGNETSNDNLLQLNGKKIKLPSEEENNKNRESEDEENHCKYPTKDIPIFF
Experiment: cryo-EM structure; purified Rad24-RFC 1.8 μM, 9–1-1 clamp 2.2 μM, double tailed DNA (5′- and 3′-recessed junctions) 2.7 μM, 0.5 mM ATPγS, 5 mM MgAcetate; ice-water bath 30 min; two conformations (clamp closed, clamp open) at 3.2 Å; both purified

binding: binds
B1: Ddc1 (subunit of the S.c. 9–1-1 clamp) (protein, UniProt Q08949 1-612)
chain: MSFKATITESGKQNIWFRAIYVLSTIQDDIKITVTTNELIAWSMNETDTTLCQVRFQKSFFEEYEFKPHEIVFGENGVQVIEDTYGNSHKLYSFRVNGRHLTTISRKPDGDGIKSFTIAVNNTSTCPESLANRLIVVIEMDSLIVKEYCPQFQPIKYDPIIINLKYKRRFLDVFGTAASDRNPQEPLDPKLLDVFTNTERELTSALFNEEVESDIRKRNQLTAADEINYICCNSTLLKNFLDNCNVNVTDEVKLEINVHRLSITAFTKAVYGKNNDLLRNALSMSNTISTLDLEHYCLFTTIEDEKQDKRSHSKRREHMKSIIFKLKDFKNFITIGPSWKTTQDGNDNISLWFCHPGDPILMQMQKPGVKLELVEVTDSNINDDILEGKFIKTAISGSKEEAGLKDNKESCESPLKSKTALKRENLPHSVAGTRNSPLKVSYLTPDNGSTVAKTYRNNTARKLFVEEQSQSTNYEQDKRFRQASSVHMNMNREQSFDIGTTHEVACPRNESNSLKRSIADICNETEDPTQQSTFAKRADTTVTWGKALPAADDEVSCSNIDRKGMLKKEKLKHMQGLLNSQNDTSNHKKQDNKEMEDGLGLTQVEKPRGIFD
